Patent publication US4358440A (Takeda Chemical Industries, Ltd., priority 1980, dated 1982)
Values joined by “and” are separate entries in the source; they are usually repeats but may differ in a detail not shown here. Equal entries are not always repeated. *: point of attachment. Cbz = O=C(OCc1ccccc1)*; Boc = CC(C)(C)OC(=O)*; OtBu = CC(C)(C)O*; NHNH2 = NN*

Assay: general procedure: solution-phase peptide synthesis; HONB active esters (ONB), DCC/HONB, azide method
Settings: coupling step
In the case of Boc-YGGFMK(Boc)P-OtBu, the step yield was 85.7%.
With Cbz-LLK(Boc)HITLK(Boc)NE(OtBu)Q-OtBu the step yield was 75.4%.
In the case of Cbz-YTK(Boc)QS-OMe, the step yield was 95.4%.
With Z-Tyr-Gly-Gly-Phe-Met(O)-OH the step yield was 50.1%.
“Cbz-YTK(Boc)QSHK(Boc)PLITLLK(Boc)HITLK(Boc)NE(OtBu)Q-OtBu” gave a step yield of 99%.
Cbz-K(Boc)HIT-OH showed a step yield of 46.6%.
Work on Cbz-YTK(Boc)QSHK(Boc)P-OH yielded a step yield of 57.3%.
With Cbz-LK(Boc)HIT-OH the step yield was 65.0%.
In the case of Cbz-LK(Boc)NE(OtBu)Q-OtBu, the step yield was 81.2%.
With “Boc-YGGFMK(Boc)PYTK(Boc)QSHK(Boc)PLITLLK(Boc)HITLK(Boc)NE(OtBu)Q-OtBu” the step yield was 84.0%.
For Cbz-K(Boc)NE(OtBu)Q-OtBu, the step yield was 79.2%.
Work on Cbz-LLK(Boc)HIT-OH yielded a step yield of 75.0%.
In the case of Cbz-LITLLK(Boc)HITLK(Boc)NE(OtBu)Q-OtBu, the step yield was 78.2%.
Cbz-TK(Boc)QS-OMe showed a step yield of 90.6%.

Same assay, conditions: late stage modification step
Boc-YGGFMK(Boc)P-OH gave a step yield of 90.9%.
For Boc-Tyr-Gly-Gly-Phe-Met-OH, the step yield was 68.7%.
For Cbz-YTK(Boc)QS-NHNH2, the step yield was 86.5%.

Same assay, conditions: late stage modification step; run 1
With H-Tyr-Gly-Gly-Phe-Met-OH the step yield was 78.9%.

Same assay, conditions: late stage modification step; run 2
In the case of H-Tyr-Gly-Gly-Phe-Met-OH, the step yield was 100%.

Same assay, conditions: purification step; run 1
For H-Tyr-Gly-Gly-Phe-Met-OH, the step yield was 93.2% and 84.1%.
